# Assay results as given in PubChem BioAssay AID2551 (National Center for Advancing Translational Sciences (NCATS), 2010).
# Sequences of proteins named here, by UniProt entry; tags and fusion partners are left off. A change or cut given only in a name is not applied to a line headed by its entry.
# UniProt P51450: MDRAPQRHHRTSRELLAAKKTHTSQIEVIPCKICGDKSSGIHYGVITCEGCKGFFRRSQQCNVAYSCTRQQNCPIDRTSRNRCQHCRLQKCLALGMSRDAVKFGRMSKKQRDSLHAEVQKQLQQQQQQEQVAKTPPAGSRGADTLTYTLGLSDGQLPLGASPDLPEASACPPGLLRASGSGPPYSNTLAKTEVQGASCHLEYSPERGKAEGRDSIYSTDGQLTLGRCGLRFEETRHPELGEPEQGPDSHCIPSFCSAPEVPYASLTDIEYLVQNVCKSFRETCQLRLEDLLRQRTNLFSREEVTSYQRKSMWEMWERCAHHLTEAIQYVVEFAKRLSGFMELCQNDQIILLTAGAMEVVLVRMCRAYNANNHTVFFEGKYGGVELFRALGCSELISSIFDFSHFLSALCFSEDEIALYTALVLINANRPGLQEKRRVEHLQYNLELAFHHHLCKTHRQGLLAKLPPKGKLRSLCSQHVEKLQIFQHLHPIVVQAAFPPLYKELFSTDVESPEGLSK
# Screen size: about 310,000 compounds; about 17,000 (5.5%) were called active. Inconclusive means that the source gave no clear call. Such entries were picked first, then a sample of the others. The call rests on the fitted dose curve; in most records, active means well fitted inhibition curve with a large enough effect; inconclusive means small, poorly fitted or top-dose-only effect, or effect the other way; inactive means no such curve, though single readings can be large or run the other way. Where the call is inconclusive, the potency comes from a doubtful curve fit.
# Biological target: Nuclear receptor ROR-gamma (Mus musculus) (UniProt P51450)
# Experiment: qHTS for inhibitors of ROR gamma transcriptional activity; further: nearly all actives have a fitted effect of over 60% in size
# Conditions: Drosophila S2 Gal4-RORgamma UAS-luciferase reporter, 20 h; activity change, negative = inhibition: at 53.6 µM (top of the series)
# In short: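 Luciferase reporter read in Schneider cells carrying Gal4-RORγ (mouse) and UAS-Photinus luciferase; cells given compound 1 h before 700 uM copper sulfate induction, then incubated 20 h at ambient temperature.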
# On the % scale 0 is the no-effect control and ±100 the full control effect; potency means the concentration at half of the fitted maximal effect.
Compound,"activity change, negative = inhibition",Potency
Clc1ccc(CN(Cc2ccccc2)C(c2cccs2)c2nnnn2C2CCCC2)cc1 (configuration not stated),inactive: -81.2%,
Cc1cc(C(=S)N2CCOCC2)c(C)n1-c1ccc(F)cc1,,"inconclusive: 22.4 µM [inhibitor, single point]"
CCOC(=O)c1c(C)oc2c1c1c(c3ccccc32)OCN(Cc2ccccn2)C1,,active: 7.08 µM
COC(=O)c1cc(N=Nc2c(C)[nH]c3ccccc23)cc(C(=O)OC)c1,inactive: 5.23%,
CCCOc1ccc(CC(=O)NNC(=S)Nc2ccccc2)cc1Br,,"inconclusive: 11.2 µM [inhibitor, partial curve, poor fit]"
CCC1=C(OC(=O)N(CC)CC)N2C(=O)OC(=NCCOC)[C@]2(Cc2ccccc2)[C@H]2C1=CC[C@H]1C(=O)N(CC)C(=O)[C@H]12,,inactive
CCc1ccccc1NC(=S)N(CCN1CCOCC1)Cc1ccccc1F,,active: 15.8 µM
Cn1nccc1C(=O)NC1CCCc2c1cnn2-c1ccccc1F (configuration not stated),,"inconclusive: 6.31 µM [inhibitor, partial curve, poor fit]"
O=C(C1COc2ccccc2O1)N1CCN(Cc2ccc(Br)cc2F)CC1 (configuration not stated),,"inconclusive: 14.1 µM [activator, single point]"
Cc1cccc(OCCC(=O)Nc2ccc(F)c(Cl)c2)c1,,"inconclusive: 20 µM [activator, single point]"
CC1CN/C(=C\C(=O)c2ccc(Cl)cc2)C(=O)N1 (configuration not stated),,"inconclusive: 35.5 µM [inhibitor, single point]"
Cc1cc(C)cc(NC(=O)NNC(=O)c2cc3occc3[nH]2)c1,,"inconclusive: 25.1 µM [inhibitor, single point]"
CC(C)(CO)N=C1NS(=O)(=O)c2cc([N+](=O)[O-])ccc21,,"inconclusive: 15.8 µM [inhibitor, single point]"
Cc1cc(N/N=C2\CC(C)CC(C)(C)C2)nc2ccccc12 (configuration not stated),,active: 12.6 µM
COc1cccc(-c2nnc(NC(=O)c3ccc4ncsc4c3)o2)c1,,active: 0.562 µM
S=c1[nH]ncn1/N=C/c1cccc(Oc2ccccc2)c1,,active: 2.82 µM
Cn1c(CNC(=O)C2CCCCC2)cc2cc(Cl)ccc21,,"inconclusive: 35.5 µM [inhibitor, single point]"
CCCCCn1ccc(=O)c2c(C(F)(F)F)nccc21,,"inconclusive: 10 µM [activator, partial curve]"
COC(=O)N1C(=O)[C@](c2ccc(OC)cc2)(C(C)C)N1C(=O)OC,inactive: -37.2%,
S=c1nc(NCc2ccc3c(c2)OCO3)c2ccccc2[nH]1,,active: 12.6 µM
CN(CC(=O)Nc1ccccc1Br)C(=O)CNC(=O)c1ccc(Oc2ccccc2)cc1,,"inconclusive: 25.1 µM [activator, single point]"
COC(=O)CNC(=O)CN1C(=O)N(c2cccc(Cl)c2)C(N(O)C(=O)Nc2cccc(Cl)c2)C1(C)C (configuration not stated),,"inconclusive: 35.5 µM [inhibitor, single point]"
C=CCOc1nc2sc(C)c(C)c2c(=O)n1-c1ccccc1,,"inconclusive: 14.1 µM [activator, partial curve]"
O=C(NCc1ccco1)Nc1cccs1,inactive: -15.5%,

Compound,"activity change, negative = inhibition",Potency
COc1ccc(-c2cn(Cc3cccc(OC)c3)nn2)cc1,,"inconclusive: 1.78 µM [activator, full curve, poor fit]"
Cc1cc(Br)cnc1NC(=S)Nc1ccc(F)cc1F,,active: 6.31 µM
Cc1ccccc1C(=O)NC1CCN(CC(=O)Nc2c(C)cccc2C)CC1,,"inconclusive: 17.8 µM [activator, single point]"
CSc1ccccc1C(=O)N1CCN(c2ccc(F)cc2)CC1,,"inconclusive: 14.1 µM [activator, single point]"
C/C(=N\Nc1ncc(Cl)cc1Cl)c1ccc(N2CCOCC2)cc1,,active: 5.01 µM
O=[N+]([O-])c1ccc(/C=N/n2cn[nH]c2=S)cc1,,active: 12.6 µM
O=C(c1cnn(C(=O)COc2ccc(Cl)cc2)c1)c1ccccc1O,,"inconclusive: 17.8 µM [inhibitor, single point]"
COc1ccc(NC(=S)N(CCN(C)C)C(C)c2ccco2)cc1 (configuration not stated),inactive: -36.6%,
COc1cc(/C=C(\C#N)c2ccccn2)cc(OC)c1O,inactive: 2.66%,
CSc1ccc(C(=O)C2CCCN(S(=O)(=O)N(C)C)C2)cc1 (configuration not stated),inactive: 28.6%,
CC1CCc2c(sc3nc(CSc4nnnn4C)[nH]c(=O)c23)C1 (configuration not stated),,"inconclusive: 1.41 µM [activator, partial curve]"
Cc1c(C(=O)Nc2ccc(Oc3ccccc3)cc2)sc2nc3n(c(=O)c12)CCC3,,"inconclusive: 28.2 µM [activator, partial curve]"
Cn1nnnc1Sc1ncnc2scc(-c3ccccc3)c12,,"inconclusive: 11.2 µM [inhibitor, partial curve]"
O=C(COC(=O)c1cccc(S(=O)(=O)N2CCOCC2)c1)NCCc1ccccc1,inactive: 0.615%,
O=C(Nc1ccc2oc(=O)ccc2c1)c1cccnc1,,"inconclusive: 12.6 µM [inhibitor, single point]"
COc1ccc2cc(/C=C/C(=O)c3ccco3)c(Cl)nc2c1,,"inconclusive: 3.55 µM [activator, single point]"
Cc1ccc(S(=O)(=O)Nc2cccc(C(=O)N3CCOCC3)c2)c(C)c1NS(C)(=O)=O,inactive: -9.57%,
CCOc1ccc(C(=O)CCCC(=O)c2ccc(OCC)cc2)cc1,,"inconclusive: 0.794 µM [activator, single point]"
COC(=O)[C@@H]1CC[C@H](C)[C@@H](c2ccc(C)cc2)N1C(=O)c1ccc(/C=N/O[C@@H](C)CN2CCCCc3nc(C)c(C)cc32)cc1,,"inconclusive: 11.2 µM [inhibitor, single point]"
COc1ccc(-c2nc3cnc(N4CCNCC4)nc3n(Cc3cccc(OC)c3)c2=O)cc1,,"inconclusive: 25.1 µM [inhibitor, single point]"
COc1cc2c(cc1NC(=O)c1ccncc1)oc1ccccc12,,"inconclusive: 8.91 µM [activator, partial curve]"
S=C(Nc1ccc(Cl)cc1Cl)NC1CCN(Cc2ccccc2)CC1,,"inconclusive: 35.5 µM [inhibitor, single point]"
C=CCN(c1ccccc1)S(=O)(=O)c1cccc2cccnc12,inactive: -27.4%,
Cn1c(-c2ccc3ccccc3n2)nc2cnccc21,,"inconclusive: 25.1 µM [inhibitor, single point]"

Compound,"activity change, negative = inhibition",Potency
Cc1nn(C(C)C(=O)O)c(C)c1[N+](=O)[O-] (configuration not stated),,"inconclusive: 5.62 µM [inhibitor, single point]"
CC1CC(=O)N(c2ccc(NCCc3ccccc3)c([N+](=O)[O-])c2)C1=O (configuration not stated),inactive: -3.66%,
Oc1ccc2nc(Cc3ccccc3)[nH]c2c1,,"inconclusive: 35.5 µM [activator, single point]"
Cc1cc(/C=N/NC(=O)c2cccs2)c(C)n1-c1ccccc1,,"inconclusive: 20 µM [inhibitor, single point]"
C=CCSc1nnc(CSc2nc3sc4c(c3c(=O)[nH]2)CCCC4)n1-c1ccccc1,,"inconclusive: 14.1 µM [activator, single point]"
CCc1ccc(-c2nc(SCC(=O)NC3CCCC3)n[nH]2)cc1,,"inconclusive: 5.01 µM [activator, partial curve]"
COc1ccccc1N(Cc1cc(=O)[nH]c2ccccc12)C(=O)c1cccc([N+](=O)[O-])c1,inactive: 8.98%,
CC(C)CCOc1ccc(Cl)cc1CN1CCOCC1,inactive: 16.9%,
COC(=O)CCC(=O)NNC(=O)c1ccc(Cl)cc1Cl,,active: 11.2 µM
CC1CCN(C(=O)c2cc3nc(-c4ccccc4)cc(-c4ccccc4)n3n2)CC1,inactive: 22.7%,
CCOc1ccc(NC(=O)c2cnccn2)cc1,,"inconclusive: 14.1 µM [inhibitor, single point]"
CCOC(=O)c1c(C)[nH]c(C(=O)COC(=O)CCC(=O)c2ccc3c(c2)OCCO3)c1C,,"inconclusive: 0.112 µM [inhibitor, single point]"
CCC1Oc2ccc(C)cc2N(CC(=O)NCc2cccc(OC)c2)C1=O (configuration not stated),,"inconclusive: 35.5 µM [activator, single point]"
Nc1nc(CN2CCN(c3ccccc3)CC2)nc(Nc2ccc(Cl)cc2)n1,,"inconclusive: 14.1 µM [inhibitor, partial curve, poor fit]"
Cc1ccc(Nc2nc(-c3ccc(O)cc3O)cs2)nc1,,active: 8.91 µM
COc1ccc(OC)c(NC(=O)c2cccc(N3C(=O)C4C5C=CC(C6CC56)C4C3=O)c2)c1 (configuration not stated),,"inconclusive: 11.2 µM [activator, partial curve]"
COC(=O)c1[nH]c2ccc(Cl)cc2c1NC(=O)c1ccccc1[N+](=O)[O-],,"inconclusive: 31.6 µM [inhibitor, single point]"
Cc1ccc(-c2c(NC(=O)c3ccco3)oc3ccccc3c2=O)cc1,,"inconclusive: 14.1 µM [activator, single point]"
Cc1ccccc1-c1coc2cc(O)ccc2c1=O,,"inconclusive: 31.6 µM [activator, single point]"
O=c1cc(O)c2c(=O)n(Cc3ccccc3)c3ccccc3c2o1,inactive: -2%,
CCCC(NC(=S)NCC1CCCO1)C12CC3CC(CC(C3)C1)C2 (configuration not stated),,active: 0.447 µM
O=C(/C=C/c1ccccc1)NCCc1ccc2c(c1)OCCO2,,"inconclusive: 35.5 µM [activator, single point]"
Cc1nn(Cc2ccc(Cl)cc2Cl)c(C)c1NC(=O)C1C2CCC(O2)C1C(=O)O (configuration not stated),,"inconclusive: 11.2 µM [activator, partial curve, poor fit]"
CCCCNC(=O)CCC(=O)Nc1ccc2nc(N3CCC(C)CC3)cc(C)c2c1,inactive: 21.1%,

# A different layout for 2 compounds above:
Compound | activity change, negative = inhibition | Potency
Cc1nn(Cc2ccc(Cl)cc2Cl)c(C)c1NC(=O)C1C2CCC(O2)C1C(=O)O (configuration not stated) |  | inconclusive: 11.2 µM [activator, partial curve, poor fit]
CCCCNC(=O)CCC(=O)Nc1ccc2nc(N3CCC(C)CC3)cc(C)c2c1 | inactive: 21.1% | 
